Compound in the assay: Nc1nc2c(ncn2[C@@H]2O[C@H](COP(=O)(O)OP(=O)(O)OP(=O)(O)O)[C@@H](O)[C@H]2O)c(=O)[nH]1 [guanosine triphosphate]
Description: NP40-soluble protein abundance relative to vehicle (solubility fold change) (ratio); higher = more soluble protein in presence of GTP. In a few lines:
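Across three independent experiments, values are fold changes against the detergent-processed vehicle for each replicate, based on vsn-normalised intensities. The samples were Jurkat crude lysate treated with eight concentrations (0.1 to 10 mM) for 10 min at room temperature and then 3 min at 37 °C. Lysate was solubilised with 0.8% NP40 and benzonase, ultracentrifuged, and the supernatant analysed by TMT-labelled LC-MS/MS.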

Amino acid sequences for entries named in this document (tags omitted). A change or cut given only in a name is not applied to a line headed by its entry.
UniProt Q9H3G5: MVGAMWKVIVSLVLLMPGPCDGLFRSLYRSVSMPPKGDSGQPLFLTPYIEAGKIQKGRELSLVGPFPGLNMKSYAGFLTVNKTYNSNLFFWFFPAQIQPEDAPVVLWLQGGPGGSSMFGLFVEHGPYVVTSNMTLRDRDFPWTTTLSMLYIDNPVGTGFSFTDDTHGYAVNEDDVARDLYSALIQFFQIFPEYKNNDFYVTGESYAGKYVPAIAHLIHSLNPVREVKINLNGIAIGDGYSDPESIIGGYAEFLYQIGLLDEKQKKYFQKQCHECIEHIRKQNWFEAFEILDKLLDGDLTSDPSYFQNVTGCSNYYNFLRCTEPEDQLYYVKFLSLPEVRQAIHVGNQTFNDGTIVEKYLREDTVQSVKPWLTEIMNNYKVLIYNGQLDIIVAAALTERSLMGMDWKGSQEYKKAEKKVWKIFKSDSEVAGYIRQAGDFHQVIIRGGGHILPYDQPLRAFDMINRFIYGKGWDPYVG
UniProt Q9H4G4: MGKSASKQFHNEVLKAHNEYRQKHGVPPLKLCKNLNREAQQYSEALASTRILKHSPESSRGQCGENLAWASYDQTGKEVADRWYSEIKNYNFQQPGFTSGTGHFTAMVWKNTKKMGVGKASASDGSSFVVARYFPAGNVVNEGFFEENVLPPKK
UniProt Q9H410: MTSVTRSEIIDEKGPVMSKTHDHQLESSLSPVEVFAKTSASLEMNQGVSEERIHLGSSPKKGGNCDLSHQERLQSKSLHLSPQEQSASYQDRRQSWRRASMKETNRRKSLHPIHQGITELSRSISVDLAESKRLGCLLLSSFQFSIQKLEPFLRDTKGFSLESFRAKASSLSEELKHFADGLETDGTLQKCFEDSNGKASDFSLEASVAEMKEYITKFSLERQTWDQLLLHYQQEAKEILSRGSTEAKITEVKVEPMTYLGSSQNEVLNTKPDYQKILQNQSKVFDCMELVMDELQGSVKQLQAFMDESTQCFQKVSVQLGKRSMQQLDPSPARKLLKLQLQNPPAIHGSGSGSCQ
UniProt Q9GZY4: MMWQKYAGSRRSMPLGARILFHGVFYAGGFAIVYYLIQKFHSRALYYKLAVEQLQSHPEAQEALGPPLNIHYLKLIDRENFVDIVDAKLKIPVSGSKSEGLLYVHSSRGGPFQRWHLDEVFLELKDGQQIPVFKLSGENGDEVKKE
UniProt Q9GZU8: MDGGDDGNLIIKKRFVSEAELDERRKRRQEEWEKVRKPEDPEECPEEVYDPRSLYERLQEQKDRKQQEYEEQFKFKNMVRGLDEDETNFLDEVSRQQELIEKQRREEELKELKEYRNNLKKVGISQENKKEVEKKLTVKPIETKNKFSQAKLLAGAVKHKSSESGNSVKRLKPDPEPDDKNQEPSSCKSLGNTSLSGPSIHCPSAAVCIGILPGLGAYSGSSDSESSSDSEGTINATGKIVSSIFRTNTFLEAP
UniProt Q9H0X9: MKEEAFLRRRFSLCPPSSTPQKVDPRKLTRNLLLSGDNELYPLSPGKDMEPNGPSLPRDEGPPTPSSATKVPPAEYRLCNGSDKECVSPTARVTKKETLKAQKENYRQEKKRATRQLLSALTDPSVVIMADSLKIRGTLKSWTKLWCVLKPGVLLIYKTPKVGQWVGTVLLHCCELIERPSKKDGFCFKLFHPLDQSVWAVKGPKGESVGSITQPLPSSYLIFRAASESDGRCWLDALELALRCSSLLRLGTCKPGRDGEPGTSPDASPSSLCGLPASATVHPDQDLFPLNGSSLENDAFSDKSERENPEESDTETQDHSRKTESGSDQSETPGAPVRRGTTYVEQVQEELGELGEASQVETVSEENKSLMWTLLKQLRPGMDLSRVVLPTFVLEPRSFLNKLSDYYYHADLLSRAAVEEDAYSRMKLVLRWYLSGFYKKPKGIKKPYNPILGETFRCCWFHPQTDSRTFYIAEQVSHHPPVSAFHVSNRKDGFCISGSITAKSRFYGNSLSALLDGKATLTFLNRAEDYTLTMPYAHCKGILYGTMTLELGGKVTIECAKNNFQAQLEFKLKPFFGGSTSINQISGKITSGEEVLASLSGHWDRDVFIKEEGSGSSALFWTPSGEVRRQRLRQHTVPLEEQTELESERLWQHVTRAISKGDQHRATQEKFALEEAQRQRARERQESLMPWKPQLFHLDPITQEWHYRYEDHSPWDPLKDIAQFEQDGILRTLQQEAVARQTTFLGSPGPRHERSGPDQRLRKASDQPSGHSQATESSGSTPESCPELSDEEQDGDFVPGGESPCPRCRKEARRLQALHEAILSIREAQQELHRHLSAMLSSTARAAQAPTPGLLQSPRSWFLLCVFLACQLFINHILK
UniProt Q9HCE1: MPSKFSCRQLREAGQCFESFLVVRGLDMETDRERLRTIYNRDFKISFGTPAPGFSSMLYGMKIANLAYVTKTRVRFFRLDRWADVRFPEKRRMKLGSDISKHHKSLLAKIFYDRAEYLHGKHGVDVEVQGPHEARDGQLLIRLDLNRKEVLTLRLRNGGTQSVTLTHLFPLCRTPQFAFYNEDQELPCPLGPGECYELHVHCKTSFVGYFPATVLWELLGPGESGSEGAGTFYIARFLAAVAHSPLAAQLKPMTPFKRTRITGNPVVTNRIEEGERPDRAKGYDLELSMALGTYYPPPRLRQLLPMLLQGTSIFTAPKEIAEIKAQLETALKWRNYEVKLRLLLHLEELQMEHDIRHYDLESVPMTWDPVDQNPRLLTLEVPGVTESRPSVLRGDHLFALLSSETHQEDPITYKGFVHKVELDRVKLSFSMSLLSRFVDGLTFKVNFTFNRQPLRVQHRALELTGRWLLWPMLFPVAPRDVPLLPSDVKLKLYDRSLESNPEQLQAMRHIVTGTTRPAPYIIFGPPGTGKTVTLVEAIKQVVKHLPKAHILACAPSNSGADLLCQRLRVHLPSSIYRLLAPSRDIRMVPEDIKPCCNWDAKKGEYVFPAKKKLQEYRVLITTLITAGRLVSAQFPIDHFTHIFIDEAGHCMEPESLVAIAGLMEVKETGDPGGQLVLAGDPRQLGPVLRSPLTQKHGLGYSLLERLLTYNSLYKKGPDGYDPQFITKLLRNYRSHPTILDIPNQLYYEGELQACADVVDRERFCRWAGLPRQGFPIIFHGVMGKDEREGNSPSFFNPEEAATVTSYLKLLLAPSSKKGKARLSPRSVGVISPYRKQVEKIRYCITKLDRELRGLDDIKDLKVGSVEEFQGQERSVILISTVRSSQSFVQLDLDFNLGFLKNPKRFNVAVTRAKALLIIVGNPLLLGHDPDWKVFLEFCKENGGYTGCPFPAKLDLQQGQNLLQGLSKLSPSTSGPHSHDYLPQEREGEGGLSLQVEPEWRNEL
UniProt Q9H173: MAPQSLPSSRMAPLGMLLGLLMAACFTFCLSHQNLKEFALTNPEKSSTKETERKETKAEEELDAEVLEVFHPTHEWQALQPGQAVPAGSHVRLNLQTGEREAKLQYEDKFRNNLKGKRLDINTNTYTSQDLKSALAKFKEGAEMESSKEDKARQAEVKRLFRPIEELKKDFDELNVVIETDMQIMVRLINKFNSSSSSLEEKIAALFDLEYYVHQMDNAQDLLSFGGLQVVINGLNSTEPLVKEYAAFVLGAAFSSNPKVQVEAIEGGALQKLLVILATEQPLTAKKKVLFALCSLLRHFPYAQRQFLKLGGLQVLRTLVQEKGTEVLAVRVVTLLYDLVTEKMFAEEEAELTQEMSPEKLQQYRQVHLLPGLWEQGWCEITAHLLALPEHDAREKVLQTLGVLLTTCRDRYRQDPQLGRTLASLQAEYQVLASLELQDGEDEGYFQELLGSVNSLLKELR
UniProt Q9NRY5: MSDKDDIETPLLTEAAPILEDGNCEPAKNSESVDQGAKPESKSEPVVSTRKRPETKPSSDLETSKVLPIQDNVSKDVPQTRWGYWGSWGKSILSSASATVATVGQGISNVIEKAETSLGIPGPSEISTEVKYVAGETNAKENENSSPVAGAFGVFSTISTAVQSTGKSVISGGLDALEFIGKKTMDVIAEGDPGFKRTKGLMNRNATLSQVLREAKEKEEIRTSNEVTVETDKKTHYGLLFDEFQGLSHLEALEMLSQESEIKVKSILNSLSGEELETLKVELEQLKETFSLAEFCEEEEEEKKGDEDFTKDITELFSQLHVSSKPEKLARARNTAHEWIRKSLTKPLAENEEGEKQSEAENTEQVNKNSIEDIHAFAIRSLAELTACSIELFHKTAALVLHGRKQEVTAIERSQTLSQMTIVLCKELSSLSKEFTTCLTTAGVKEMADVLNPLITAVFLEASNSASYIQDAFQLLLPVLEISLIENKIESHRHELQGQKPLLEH
UniProt Q9GZR2: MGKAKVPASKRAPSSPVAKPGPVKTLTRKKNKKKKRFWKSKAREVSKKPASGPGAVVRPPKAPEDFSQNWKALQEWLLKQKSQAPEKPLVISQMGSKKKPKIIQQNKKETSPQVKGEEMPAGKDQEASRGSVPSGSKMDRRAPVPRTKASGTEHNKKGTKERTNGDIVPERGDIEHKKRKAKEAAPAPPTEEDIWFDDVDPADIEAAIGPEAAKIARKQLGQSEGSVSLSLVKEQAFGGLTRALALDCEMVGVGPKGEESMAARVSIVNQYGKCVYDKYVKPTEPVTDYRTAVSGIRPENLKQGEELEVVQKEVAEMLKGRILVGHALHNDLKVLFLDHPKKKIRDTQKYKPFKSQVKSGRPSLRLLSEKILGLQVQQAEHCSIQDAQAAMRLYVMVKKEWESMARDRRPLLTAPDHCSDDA
UniProt Q9C0C2: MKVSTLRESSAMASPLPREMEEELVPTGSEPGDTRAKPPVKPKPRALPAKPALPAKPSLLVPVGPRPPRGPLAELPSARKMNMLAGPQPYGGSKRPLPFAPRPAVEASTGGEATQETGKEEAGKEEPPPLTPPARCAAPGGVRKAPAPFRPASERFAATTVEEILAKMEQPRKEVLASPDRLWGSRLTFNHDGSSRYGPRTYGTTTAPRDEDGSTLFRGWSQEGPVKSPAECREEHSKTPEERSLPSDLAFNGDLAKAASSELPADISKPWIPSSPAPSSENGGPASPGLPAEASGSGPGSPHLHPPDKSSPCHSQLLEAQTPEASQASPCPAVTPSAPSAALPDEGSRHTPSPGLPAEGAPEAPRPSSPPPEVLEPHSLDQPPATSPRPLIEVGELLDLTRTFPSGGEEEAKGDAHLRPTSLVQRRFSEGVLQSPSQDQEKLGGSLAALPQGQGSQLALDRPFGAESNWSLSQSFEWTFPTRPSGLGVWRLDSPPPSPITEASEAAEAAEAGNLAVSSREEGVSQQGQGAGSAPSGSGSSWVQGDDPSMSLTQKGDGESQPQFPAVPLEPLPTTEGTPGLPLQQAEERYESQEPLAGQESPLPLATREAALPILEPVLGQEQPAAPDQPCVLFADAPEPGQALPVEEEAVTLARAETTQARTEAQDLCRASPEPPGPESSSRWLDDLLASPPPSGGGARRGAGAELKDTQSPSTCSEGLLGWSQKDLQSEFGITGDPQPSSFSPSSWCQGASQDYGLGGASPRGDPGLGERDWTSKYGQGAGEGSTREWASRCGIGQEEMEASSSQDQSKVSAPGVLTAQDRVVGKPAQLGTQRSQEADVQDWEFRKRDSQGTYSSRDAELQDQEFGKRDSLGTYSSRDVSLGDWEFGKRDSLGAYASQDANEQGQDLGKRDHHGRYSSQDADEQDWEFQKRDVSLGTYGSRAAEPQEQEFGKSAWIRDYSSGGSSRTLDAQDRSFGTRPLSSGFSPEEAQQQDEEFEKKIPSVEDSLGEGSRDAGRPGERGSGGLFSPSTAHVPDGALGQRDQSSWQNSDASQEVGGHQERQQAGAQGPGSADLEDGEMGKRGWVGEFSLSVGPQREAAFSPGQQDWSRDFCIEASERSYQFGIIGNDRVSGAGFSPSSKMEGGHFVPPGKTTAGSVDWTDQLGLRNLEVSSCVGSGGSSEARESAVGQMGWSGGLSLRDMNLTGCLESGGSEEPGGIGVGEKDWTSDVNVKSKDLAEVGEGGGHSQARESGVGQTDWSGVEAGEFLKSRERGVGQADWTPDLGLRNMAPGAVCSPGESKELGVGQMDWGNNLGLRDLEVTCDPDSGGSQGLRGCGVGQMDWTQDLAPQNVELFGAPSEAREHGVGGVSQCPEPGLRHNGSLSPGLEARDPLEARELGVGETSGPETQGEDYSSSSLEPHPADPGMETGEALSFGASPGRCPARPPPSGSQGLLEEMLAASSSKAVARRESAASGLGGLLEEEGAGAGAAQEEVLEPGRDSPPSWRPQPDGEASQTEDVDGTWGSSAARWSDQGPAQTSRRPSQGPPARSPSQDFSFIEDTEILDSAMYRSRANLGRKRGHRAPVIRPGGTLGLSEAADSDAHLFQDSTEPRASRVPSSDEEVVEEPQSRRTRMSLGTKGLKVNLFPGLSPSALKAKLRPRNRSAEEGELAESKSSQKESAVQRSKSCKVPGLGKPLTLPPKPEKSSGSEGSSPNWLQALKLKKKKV

± gives the standard deviation of the averaged measurements. The list shows a part of the results.

CPVL (UniProt Q9H3G5): the NP40-soluble protein abundance runs as follows: (concentration: 0.1mM) 0.938 ± 0.021; (concentration: 0.5mM) 0.964 ± 0.037; (concentration: 1mM) 0.94 ± 0.017; (concentration: 2mM) 0.961 ± 0.042; (concentration: 4mM) 0.936 ± 0.018; (concentration: 6mM) 0.953 ± 0.043. The NP40-soluble protein abundance is 0.904 ± 0.033 (concentration: 8mM) and 0.97 ± 0.021 (concentration: 10mM).
Take UniProt Q9H4G4 and related entries: the NP40-soluble protein abundance reads like this: (concentration: 0.1mM) 0.89 ± 0.069; (concentration: 0.5mM) 0.903 ± 0.1; (concentration: 1mM) 0.921 ± 0.046; (concentration: 2mM) 0.887 ± 0.087; (concentration: 4mM) 0.89 ± 0.046; (concentration: 6mM) 0.9 ± 0.11. Moreover, the NP40-soluble protein abundance by setting is: (concentration: 8mM) 0.892 ± 0.07; (concentration: 10mM) 0.884 ± 0.11.
For DSN1 (UniProt Q9H410), the NP40-soluble protein abundance by setting is: (concentration: 0.1mM) 0.948 ± 0.025; (concentration: 0.5mM) 0.937 ± 0.026; (concentration: 1mM) 0.941 ± 0.046; (concentration: 2mM) 0.935 ± 0.012; (concentration: 4mM) 0.934 ± 0.036; (concentration: 6mM) 0.948 ± 0.011. The NP40-soluble protein abundance was 0.945 ± 0.061 (concentration: 8mM) and 0.942 ± 0.031 (concentration: 10mM).
As for UniProt Q9H019 and related entries, the NP40-soluble protein abundance amounted to 0.943 ± 0.079 (concentration: 0.1mM); 0.915 ± 0.11 (concentration: 0.5mM); 0.944 ± 0.13 (concentration: 1mM); 0.902 ± 0.12 (concentration: 2mM); 0.924 ± 0.09 (concentration: 4mM); 0.903 ± 0.08 (concentration: 6mM). The NP40-soluble protein abundance turned out to be 0.91 ± 0.099 (concentration: 8mM) and 0.927 ± 0.088 (concentration: 10mM).
Consider UniProt Q9GZY4, for which the NP40-soluble protein abundance is, setting by setting: (concentration: 0.1mM) 1.02 ± 0.048; (concentration: 0.5mM) 1.04 ± 0.081; (concentration: 1mM) 0.998 ± 0.051; (concentration: 2mM) 0.973 ± 0.1; (concentration: 4mM) 0.971 ± 0.079; (concentration: 6mM) 0.994 ± 0.11. Also, the NP40-soluble protein abundance is, setting by setting: (concentration: 8mM) 0.988 ± 0.092; (concentration: 10mM) 0.94 ± 0.061.
Consider RRAGC (UniProt Q9HB90), for which the NP40-soluble protein abundance (concentration: 0.1mM) amounted to 1.02 ± 0.031; the NP40-soluble protein abundance (concentration: 0.5mM) turned out to be 1.03 ± 0.053; the NP40-soluble protein abundance (concentration: 1mM) is 1 ± 0.025; the NP40-soluble protein abundance (concentration: 2mM) is 1.02 ± 0.028; the NP40-soluble protein abundance (concentration: 4mM) was found to be 0.927 ± 0.041; the NP40-soluble protein abundance (concentration: 6mM) came to 0.989 ± 0.048. For the same target, the NP40-soluble protein abundance is, setting by setting: (concentration: 8mM) 0.993 ± 0.052; (concentration: 10mM) 0.969 ± 0.032.
As for UniProt Q9GZU8, the NP40-soluble protein abundance was 0.899 ± 0.012 (concentration: 0.1mM); 0.902 ± 0.046 (concentration: 0.5mM); 0.9756 ± 0.0087 (concentration: 1mM); 0.911 ± 0.025 (concentration: 2mM); 0.896 ± 0.016 (concentration: 4mM); 0.911 ± 0.046 (concentration: 6mM). The NP40-soluble protein abundance (concentration: 8mM) was 0.917 ± 0.049 and the NP40-soluble protein abundance (concentration: 10mM) was determined as 0.931 ± 0.013.
With TAOK3 (UniProt Q9H2K8), the NP40-soluble protein abundance came to 0.977 ± 0.11 (concentration: 0.1mM); 0.981 ± 0.1 (concentration: 0.5mM); 0.917 ± 0.099 (concentration: 1mM); 0.92 ± 0.052 (concentration: 2mM); 0.924 ± 0.081 (concentration: 4mM); 0.907 ± 0.061 (concentration: 6mM). In addition, the NP40-soluble protein abundance was determined as 0.926 ± 0.11 (concentration: 8mM) and 0.863 ± 0.087 (concentration: 10mM).
UniProt Q9H0X9 and related entries: the NP40-soluble protein abundance turned out to be 1.24 ± 0.014 (concentration: 0.1mM); 1.23 ± 0.032 (concentration: 0.5mM); 1.25 ± 0.14 (concentration: 1mM); 1.06 ± 0.18 (concentration: 2mM); 1.01 ± 0.036 (concentration: 4mM); 1.21 ± 0.038 (concentration: 6mM). Also, the NP40-soluble protein abundance runs as follows: (concentration: 8mM) 1.39 ± 0.32; (concentration: 10mM) 1.1 ± 0.068.
As for MOV10 (UniProt Q9HCE1), the NP40-soluble protein abundance runs as follows: (concentration: 0.1mM) 1.09 ± 0.09; (concentration: 0.5mM) 1.2 ± 0.19; (concentration: 1mM) 1.1 ± 0.16; (concentration: 2mM) 1.24 ± 0.28; (concentration: 4mM) 1.22 ± 0.25; (concentration: 6mM) 1.21 ± 0.26. For the same target, the NP40-soluble protein abundance is 1.12 ± 0.19 (concentration: 8mM) and 1.06 ± 0.19 (concentration: 10mM).
In the case of XPO5 (UniProt Q9HAV4), the NP40-soluble protein abundance worked out at 1.02 ± 0.048 (concentration: 0.1mM); 1.01 ± 0.039 (concentration: 0.5mM); 0.951 ± 0.037 (concentration: 1mM); 0.955 ± 0.058 (concentration: 2mM); 0.925 ± 0.06 (concentration: 4mM); 0.931 ± 0.057 (concentration: 6mM). The NP40-soluble protein abundance (concentration: 8mM) is 0.902 ± 0.056 and the NP40-soluble protein abundance (concentration: 10mM) amounted to 0.882 ± 0.068.
Take UniProt Q9H173 and related entries: the NP40-soluble protein abundance reads like this: (concentration: 0.1mM) 0.901 ± 0.014; (concentration: 0.5mM) 0.891 ± 0.046; (concentration: 1mM) 0.955 ± 0.03; (concentration: 2mM) 1.02 ± 0.037; (concentration: 4mM) 0.917 ± 0.025; (concentration: 6mM) 0.898 ± 0.1. Further, the NP40-soluble protein abundance is 0.893 ± 0.061 (concentration: 8mM) and 0.9143 ± 0.0027 (concentration: 10mM).
Regarding FAM114A2 (UniProt Q9NRY5), the NP40-soluble protein abundance is, setting by setting: (concentration: 0.1mM) 0.951 ± 0.06; (concentration: 0.5mM) 0.918 ± 0.067; (concentration: 1mM) 0.958 ± 0.056; (concentration: 2mM) 0.914 ± 0.082; (concentration: 4mM) 0.876 ± 0.061; (concentration: 6mM) 0.886 ± 0.12. Besides, the NP40-soluble protein abundance was 0.894 ± 0.072 (concentration: 8mM) and 0.904 ± 0.059 (concentration: 10mM).
Regarding REXO4 (UniProt Q9GZR2), the NP40-soluble protein abundance came out at 0.974 ± 0.054 (concentration: 0.1mM); 0.964 ± 0.087 (concentration: 0.5mM); 0.996 ± 0.072 (concentration: 1mM); 0.994 ± 0.086 (concentration: 2mM); 1.01 ± 0.065 (concentration: 4mM); 1.08 ± 0.098 (concentration: 6mM). Also, the NP40-soluble protein abundance reads like this: (concentration: 8mM) 1.07 ± 0.081; (concentration: 10mM) 1.09 ± 0.088.
With TNKS1BP1 (UniProt Q9C0C2), the NP40-soluble protein abundance runs as follows: (concentration: 0.1mM) 1.05 ± 0.031; (concentration: 0.5mM) 1.02 ± 0.021; (concentration: 1mM) 1.12 ± 0.058; (concentration: 2mM) 1.15 ± 0.072; (concentration: 4mM) 1.18 ± 0.15; (concentration: 6mM) 1.19 ± 0.094. Further, the NP40-soluble protein abundance came to 1.23 ± 0.16 (concentration: 8mM) and 1.27 ± 0.14 (concentration: 10mM).

These data come from the supplement of paper PMC6411743.
